One may read the AC50 as the concentration giving half of the maximal activity seen.

64 compounds from PubChem BioAssay AID493014 (National Center for Advancing Translational Sciences (NCATS), 2011) can be followed below.

This assay can be described thus: qHTS Assay to Find Inhibitors of Chronic Active B-Cell Receptor Signaling. To be noted: ABC-DLBCL IkBa-CBG/CBR reporter, luminescence ratio (green luciferase fused to IkBa over red control in TMD8 lymphoma cells), 4 h. In short, it runs like this:
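Compounds up to 46 uM were incubated four hours with TMD8 cells whose green CBG68 luciferase is fused to IkappaBalpha; red CBR luminescence normalised the signal, and concentration-effect curves were fitted to fusion, red and ratio data.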
A general note: In qHTS, concentration-response curves come from the screen itself.

[1] abbreviates: measured here: CBR red luminescence, cell number.
Setting [2] is: measured here: IkBa-CBG green luminescence.

The list shows a part of the results. Shown are side measurements of this screen, not its main read-out; they come without a call. The list favours compounds with an active or inconclusive main result. Words in brackets tell the shape of the fitted curve; partial curves, single points and poor fits give uncertain potencies.

With `Cc1ccc2oc(=O)c(/C=C(\O)c3ccccc3)nc2c1`, under setting [1], the AC50 was 1.12 µM [falling, full curve, poor fit].
Consider `O=C(NC(=S)Nc1nc2ccc(F)cc2s1)c1ccco1`, for which the AC50 under setting [1] was 2.24 µM [falling, full curve, poor fit].
Same read-out and setting: next, `CCC(O)c1cc2c(cc1NC(=O)c1cccs1)OCCO2` (stereo not drawn): 0.411 µM [rising, partial curve, poor fit]; `CC(OC(=O)c1ccc2ncsc2c1)C(=O)Nc1ncc(Cl)cc1Cl` (stereo not drawn): 0.326 µM [falling, full curve, poor fit].
On the same count and under the same terms, next, `Cc1cc(C)c2oc(C(=O)N3CCN(C)CC3)cc(=O)c2c1`: 14.1 µM [rising, single point].
The same measure, in the same setting: with `Cc1cc(Br)c(NC(=O)CCl)c(Br)c1` the figure was 20.6 µM [falling, single point].
For `Oc1ccc(/C=N/NC(=S)Nc2cccnc2)cc1`, the AC50 under setting [1] was 10 µM [falling, partial curve, poor fit].
On the same count and under the same terms, next, `Nc1nc2ccccc2n1C(=O)c1ccccc1`: 1.41 µM [falling, full curve]; `CC(C)(C)c1cc(=O)n(-c2ccccc2)[nH]1`: 23.1 µM [falling, single point].
As to `O=C(Nc1ccc2c(c1)OCO2)c1noc2c1CCCC2`, under setting [1], the AC50 is 8.91 µM [falling, partial curve, poor fit].
For the compound `CC(C)Cn1c(=O)c2ccccc2n2c(SCC(=O)N3c4ccccc4CC3C)nnc12` (stereo not drawn), the AC50 under setting [1] is 18.4 µM [rising, single point].
Same read-out and setting: with `CCn1cc(C(=O)NCCCN2CCCC(C)C2)c(=O)c2cc(S(=O)(=O)N(C)C3CCCCC3)ccc21` (stereo not drawn) the figure was 35.5 µM [rising, single point]; with `CCOC(=O)/C(C(N)=NCC(C)C)=C(/O)c1ccccc1`, 6.31 µM [rising, single point].
The same measure, in the same setting: next, `Fc1ccc(N2CCN(C3=Nc4cccc5cccc3c45)CC2)cc1`: 6.31 µM [rising, single point].
Still for that read-out and setting: next, `COc1ccc(-c2cn[nH]c2C)cc1`: 11.2 µM [falling, single point]; `CC1=NN(C(N)=S)C(=O)C1N=Nc1cccc(Cl)c1C` (stereo not drawn): 0.501 µM [rising, full curve]; `C=CCn1c(SCC(=O)c2ccc(O)c(O)c2)nnc1-c1cccnc1`: 15.8 µM [falling, partial curve, poor fit].
Turning to `CC(=O)C(Sc1nn(C)c(=S)s1)C(=O)Nc1ccccc1` (stereo not drawn), the AC50 under setting [1] is 35.5 µM [falling, single point].
The same measure, in the same setting: with `O=c1oc(CCO)cc2ccc(C#Cc3ccsc3)cc12` the figure was 2.59 µM [rising, full curve].
For the compound `COc1cc(SC)ccc1C(=O)Nc1ccccc1C#N`, the AC50 under setting [1] is 14.6 µM [rising, partial curve, poor fit].
The same measure, in the same setting: next, `CC1CCCN(C(=O)C2CCN(c3ncnc4c3nc3n4CCCCC3)CC2)C1` (stereo not drawn): 17.8 µM [rising, partial curve, poor fit].
Still for that read-out and setting: next, `CCNC(=O)CCn1nc(-c2ccc(C)cc2)c2ccccc2c1=O`: 2.82 µM [falling, full curve, poor fit].
For the compound `C1CCN(CCCNC2C3CC4CC(C3)CC2C4)C1` (stereo not drawn), the AC50 under setting [1] was 29.1 µM [falling, single point].
On to `COc1ccc(-c2nn(C)c(=O)c3ccccc23)cc1NS(C)(=O)=O`, for which the AC50 under setting [1] was 10 µM [rising, partial curve, poor fit] and the AC50 under setting [2] was 12.6 µM [falling, single point].
For the compound `CSc1nc2nc3c(cc2c(=O)n1-c1cccc(C)c1)COC(C)(C)C3`, the AC50 under setting [1] is 5.62 µM [falling, single point].
Still for that read-out and setting: with `Cc1ccc(S(=O)(=O)N2CCC(C(=O)N3CCC[C@H]3C(=O)NC3CCS(=O)(=O)C3)CC2)cc1` (stereo partly drawn) the figure was 29.1 µM [rising, single point]; with `O=C(Cn1ncc2c3ccccc3n(Cc3ccccc3)c2c1=O)N1CCN(c2ncccn2)CC1`, 3.26 µM [falling, single point]; with `Cc1ccc(S(=O)(=O)CCC(=O)OCc2ccccc2)cc1`, 0.631 µM [rising, partial curve, poor fit].
For the compound `O=C(Cc1ccc(N2CCNC2=O)cc1)N1CCCC(Nc2cccc(F)c2)C1` (stereo not drawn), the AC50 is, setting by setting: under setting [1], 31.6 µM [rising, single point]; under setting [2], 15.8 µM [falling, single point].
As to `Cc1ccc(C)c(C(=O)Nc2c(C(N)=O)oc3ccccc23)c1`, under setting [2], the AC50 was 0.651 µM [rising, full curve, poor fit].
With `CCOc1ccc(C(=O)Nc2cccc(C)n2)cc1`, the AC50 under setting [1] is 10 µM [falling, partial curve].
Still for that read-out and setting: with `O=C(O)c1c(CNCc2cccc(F)c2)c2ccccc2n1Cc1ccccc1` the figure was 22.4 µM [falling, partial curve].
The same measure, in the same setting: with `CC1(C)Cc2c(sc(NC(=O)c3ccccc3)c2C(=O)O)CO1` the figure was 0.224 µM [falling, full curve, poor fit]; with `CC(=O)NC(=O)c1ccc(-c2ccc(Cl)cc2)o1`, 29.1 µM [rising, single point]; with `Cc1cccc(-n2ncc3c(N4CCC(C)CC4)ncnc32)c1`, 0.411 µM [rising, partial curve, poor fit].
Still for that read-out and setting: next, `COc1cccc(C(=O)OCC(=O)c2ccc(Br)s2)c1OC`: 6.51 µM [rising, partial curve, poor fit].
Consider `Cc1cc(NC(=O)CSc2nc(=O)cc(N)n2-c2ccc(Cl)cc2)no1`, for which the AC50 under setting [1] is 0.562 µM [rising, full curve].
The same measure, in the same setting: with `CCN(CC)CCCNC(=O)c1cc2c(=O)[nH]c3ccc(C)cc3c2s1` the figure was 20 µM [falling, single point].
On the same count and under the same terms, with `N#C/C(=C/c1cccc(C(F)(F)F)c1)c1nc(CCN2C(=O)c3ccccc3C2=O)cs1` the figure was 3.16 µM [falling, partial curve, poor fit].
Still for that read-out and setting: next, `CCn1cc(C(=O)N[C@@H](C)C(=O)NCCCO)c(=O)c2cc3c(cc21)OCO3`: 12.6 µM [falling, partial curve, poor fit]; `CN(Cc1ccccc1)CC(O)COc1ccc(CNCc2ccc(Cl)s2)cc1` (stereo not drawn): 2.51 µM [falling, partial curve, poor fit]; `c1nnnn1C12CC3CC(CC(C3)C1)C2`: 25.9 µM [rising, single point].
`CN(CCOc1ccccc1)CC(=O)Nc1ccc(S(=O)(=O)N2CCCC2)cc1`: the AC50 under setting [1] is 0.1 µM [rising, full curve, poor fit].
The same measure, in the same setting: next, `Cc1cc(C)n2nc(C(=O)OCC(=O)c3cc(C)n(CC4CCCO4)c3C)nc2n1` (stereo not drawn): 6.31 µM [rising, single point].
Same read-out and setting: next, `Cc1ccccc1C(=O)N1CCC(C(=O)Nc2ccc(S(=O)(=O)N3CCCC3)cc2)CC1`: 0.00461 µM [falling, full curve, poor fit]; `COc1cc(OC)cc(C(=O)N[C@H](C(=O)OCC(=O)Nc2ccc(F)c(F)c2F)C(C)C)c1`: 35.5 µM [falling, single point]; `CC(O)Cn1cnc2c1c(=O)n(C)c(=O)n2C` (stereo not drawn): 0.92 µM [falling, partial curve, poor fit].
Same read-out and setting: next, `C/C(=N/NC(=O)c1sc(NS(=O)(=O)c2ccccc2)nc1C)c1sc(N)nc1C`: 14.1 µM [falling, single point].
Take `COc1ccc(Cn2c(CCC(=O)Nc3ccc(CC#N)cc3)nc3cccnc32)cc1`: the AC50 under setting [1] was 10 µM [rising, partial curve, poor fit].
Still for that read-out and setting: next, `O=C(c1cccnc1)N1CCN(Cc2cccc(F)c2)CC1`: 2.91 µM [falling, single point].
Consider `CCSc1nc2c(c(-c3ccc(C)o3)c1C#N)CCCC2`, for which the AC50 under setting [2] is 16.4 µM [rising, partial curve, poor fit].
With `Cc1cc(-c2nc(C)c(C(=O)NNS(=O)(=O)c3ccc(Cl)cc3Cl)s2)no1`, under setting [1], the AC50 was 7.94 µM [falling, partial curve].
Regarding `COc1ccc(-c2cc(C(=O)N3CCN(Cc4ccccc4)CC3)no2)cc1OC`, the AC50 under setting [1] is 1.84 µM [falling, partial curve, poor fit].
On to `COc1ccccc1OCC(=O)NCCC1=CCCCC1`, for which the AC50 under setting [1] was 2.91 µM [rising, full curve].
Still for that read-out and setting: next, `C/C(=C\C(=O)c1ccccc1)Nc1ccc(Br)c(Cl)c1`: 6.31 µM [rising, partial curve].
`O=C(N/N=C/c1cccnc1)c1ccc2ccccc2c1O`: under setting [1], the AC50 is 10 µM [falling, partial curve, poor fit].
Consider `Cc1ccc(C(=O)N/N=C\c2ccccc2[N+](=O)[O-])cn1`, for which the AC50 under setting [1] is 11.2 µM [falling, partial curve].
Turning to `O=C(Nc1ccc2c(c1)C(=O)NC2=O)c1ccccc1`, the AC50 under setting [1] is 14.1 µM [falling, partial curve].
The same measure, in the same setting: next, `N#Cc1cc2c(nc1SCc1ccc(Cl)nc1)CCCCC2`: 2.82 µM [rising, partial curve, poor fit].
For the compound `Cc1ccc(S(=O)(=O)n2ccc(OC(=O)c3cccs3)n2)cc1`, the AC50 reads like this: under setting [1], 14.1 µM [rising, single point]; under setting [2], 35.5 µM [falling, partial curve, poor fit].
On to `COc1ccc(C(=O)OCC(=O)c2ccc(F)cc2)cc1OC`, for which, under setting [1], the AC50 was 20.6 µM [falling, single point].
On the same count and under the same terms, with `CCOc1ccccc1NC(=O)CCc1ccc(C)o1` the figure was 6.51 µM [falling, partial curve, poor fit]; with `Oc1ccc(Br)cc1/C=N/N1CCCCC1`, 4.11 µM [rising, full curve].
`CC[C@]12c3[nH]c4cc(CCC(=O)N(C)C)ccc4c3CCN1C(=O)[C@@H](CC(=O)NCc1ccc(OC)c(OC)c1)C[C@@H]2C(=O)N1CCN(C(=O)c2ccco2)CC1`: the AC50 is, setting by setting: under setting [1], 16.4 µM [rising, partial curve, poor fit]; under setting [2], 13 µM [falling, partial curve, poor fit].
